# Laboratory results as given in the supplement of paper PMC12819154, “High-throughput peptide-centric local stability assay extends protein–ligand identification to membrane proteins, tissues and bacteria” (Nature Structural & Molecular Biology, 2025).
# Sequences of proteins named here, by UniProt entry; tags and fusion partners are left off. A change or cut given only in a name is not applied to a line headed by its entry.
# UniProt O14787: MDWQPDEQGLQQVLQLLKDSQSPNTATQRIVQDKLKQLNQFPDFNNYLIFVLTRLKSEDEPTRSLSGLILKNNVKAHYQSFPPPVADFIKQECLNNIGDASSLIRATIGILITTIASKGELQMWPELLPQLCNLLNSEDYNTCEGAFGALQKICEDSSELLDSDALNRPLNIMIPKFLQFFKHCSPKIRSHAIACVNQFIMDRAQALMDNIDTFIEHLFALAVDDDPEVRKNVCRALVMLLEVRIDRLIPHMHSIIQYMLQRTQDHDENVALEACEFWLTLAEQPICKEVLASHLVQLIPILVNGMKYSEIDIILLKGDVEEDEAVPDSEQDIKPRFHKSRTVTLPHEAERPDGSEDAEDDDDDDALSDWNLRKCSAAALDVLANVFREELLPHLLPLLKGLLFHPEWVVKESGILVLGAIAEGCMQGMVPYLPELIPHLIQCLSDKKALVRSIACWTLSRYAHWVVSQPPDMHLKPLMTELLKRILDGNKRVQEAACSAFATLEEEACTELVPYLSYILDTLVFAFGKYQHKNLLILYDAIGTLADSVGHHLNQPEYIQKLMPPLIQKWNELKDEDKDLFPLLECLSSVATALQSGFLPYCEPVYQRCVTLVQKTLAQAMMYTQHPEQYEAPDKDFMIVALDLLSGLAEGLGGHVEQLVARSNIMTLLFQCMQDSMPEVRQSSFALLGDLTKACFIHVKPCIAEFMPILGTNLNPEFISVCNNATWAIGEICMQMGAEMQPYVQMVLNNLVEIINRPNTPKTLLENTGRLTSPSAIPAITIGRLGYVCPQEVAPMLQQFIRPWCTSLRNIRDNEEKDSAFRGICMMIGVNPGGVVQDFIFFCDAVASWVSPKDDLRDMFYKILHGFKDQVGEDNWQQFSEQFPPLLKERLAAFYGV
# UniProt O14908: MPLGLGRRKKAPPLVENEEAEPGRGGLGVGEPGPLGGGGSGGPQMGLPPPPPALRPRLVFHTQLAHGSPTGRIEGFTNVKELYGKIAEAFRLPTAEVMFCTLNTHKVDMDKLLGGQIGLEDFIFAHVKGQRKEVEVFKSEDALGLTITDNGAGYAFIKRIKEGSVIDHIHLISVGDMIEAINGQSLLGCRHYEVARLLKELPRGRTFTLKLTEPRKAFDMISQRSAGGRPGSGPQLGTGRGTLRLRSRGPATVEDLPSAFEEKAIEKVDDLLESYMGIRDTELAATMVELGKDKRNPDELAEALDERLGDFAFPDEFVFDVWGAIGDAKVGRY
# UniProt O14562: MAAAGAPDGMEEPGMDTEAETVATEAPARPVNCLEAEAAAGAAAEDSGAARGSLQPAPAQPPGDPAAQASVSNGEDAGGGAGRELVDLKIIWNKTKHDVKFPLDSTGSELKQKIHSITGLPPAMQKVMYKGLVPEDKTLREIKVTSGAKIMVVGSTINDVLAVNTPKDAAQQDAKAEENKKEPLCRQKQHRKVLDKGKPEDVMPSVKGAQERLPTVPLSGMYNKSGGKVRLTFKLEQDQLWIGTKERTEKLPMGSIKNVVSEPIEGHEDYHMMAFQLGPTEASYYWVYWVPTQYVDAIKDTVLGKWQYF
# UniProt O14828: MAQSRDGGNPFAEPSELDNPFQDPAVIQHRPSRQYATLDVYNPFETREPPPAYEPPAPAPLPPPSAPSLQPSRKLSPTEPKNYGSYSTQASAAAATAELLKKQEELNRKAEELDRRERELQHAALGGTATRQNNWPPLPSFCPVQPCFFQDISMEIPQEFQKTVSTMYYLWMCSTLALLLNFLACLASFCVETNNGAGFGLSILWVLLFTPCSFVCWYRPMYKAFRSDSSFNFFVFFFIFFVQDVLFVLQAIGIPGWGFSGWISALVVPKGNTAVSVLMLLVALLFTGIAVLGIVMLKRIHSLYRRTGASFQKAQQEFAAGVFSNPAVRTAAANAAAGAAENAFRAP
# UniProt O00401, whole entry: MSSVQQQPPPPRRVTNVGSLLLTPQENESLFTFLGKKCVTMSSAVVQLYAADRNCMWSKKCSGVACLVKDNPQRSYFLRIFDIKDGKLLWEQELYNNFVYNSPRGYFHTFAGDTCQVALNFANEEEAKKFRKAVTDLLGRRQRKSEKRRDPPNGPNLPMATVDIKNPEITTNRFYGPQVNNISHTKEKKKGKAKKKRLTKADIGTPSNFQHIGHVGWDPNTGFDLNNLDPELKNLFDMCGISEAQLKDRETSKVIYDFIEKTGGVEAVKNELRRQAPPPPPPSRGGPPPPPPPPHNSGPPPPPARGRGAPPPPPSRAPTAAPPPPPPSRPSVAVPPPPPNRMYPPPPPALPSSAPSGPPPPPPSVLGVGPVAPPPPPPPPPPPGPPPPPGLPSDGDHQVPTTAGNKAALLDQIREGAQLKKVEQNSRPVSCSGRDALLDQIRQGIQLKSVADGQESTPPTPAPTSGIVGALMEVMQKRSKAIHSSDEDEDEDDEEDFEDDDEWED
# UniProt O15371, whole entry: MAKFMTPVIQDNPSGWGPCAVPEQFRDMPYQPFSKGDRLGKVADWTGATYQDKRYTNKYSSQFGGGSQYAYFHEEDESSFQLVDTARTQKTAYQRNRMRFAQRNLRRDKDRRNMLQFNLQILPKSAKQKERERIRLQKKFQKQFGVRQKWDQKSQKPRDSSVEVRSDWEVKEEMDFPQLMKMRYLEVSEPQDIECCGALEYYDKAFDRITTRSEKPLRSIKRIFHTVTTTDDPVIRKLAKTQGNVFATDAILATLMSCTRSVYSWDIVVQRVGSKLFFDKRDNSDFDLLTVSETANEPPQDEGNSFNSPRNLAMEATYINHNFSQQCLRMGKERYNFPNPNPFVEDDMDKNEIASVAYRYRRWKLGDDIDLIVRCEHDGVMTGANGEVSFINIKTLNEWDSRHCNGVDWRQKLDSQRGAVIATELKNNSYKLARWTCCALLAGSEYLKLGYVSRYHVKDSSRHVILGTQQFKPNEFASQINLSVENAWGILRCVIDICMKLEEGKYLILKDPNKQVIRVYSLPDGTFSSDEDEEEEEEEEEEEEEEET
# UniProt A6NHL2: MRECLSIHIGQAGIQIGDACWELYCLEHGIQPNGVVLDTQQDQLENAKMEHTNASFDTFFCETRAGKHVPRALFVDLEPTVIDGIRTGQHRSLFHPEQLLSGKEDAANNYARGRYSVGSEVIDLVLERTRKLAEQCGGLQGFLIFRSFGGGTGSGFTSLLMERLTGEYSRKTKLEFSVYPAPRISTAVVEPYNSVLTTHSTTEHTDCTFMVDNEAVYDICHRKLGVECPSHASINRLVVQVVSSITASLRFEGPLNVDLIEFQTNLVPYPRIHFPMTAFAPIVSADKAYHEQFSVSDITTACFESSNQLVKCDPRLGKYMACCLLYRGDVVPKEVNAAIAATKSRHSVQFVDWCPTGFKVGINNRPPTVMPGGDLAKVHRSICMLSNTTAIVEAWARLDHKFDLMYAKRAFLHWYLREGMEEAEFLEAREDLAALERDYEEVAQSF
# UniProt O14776: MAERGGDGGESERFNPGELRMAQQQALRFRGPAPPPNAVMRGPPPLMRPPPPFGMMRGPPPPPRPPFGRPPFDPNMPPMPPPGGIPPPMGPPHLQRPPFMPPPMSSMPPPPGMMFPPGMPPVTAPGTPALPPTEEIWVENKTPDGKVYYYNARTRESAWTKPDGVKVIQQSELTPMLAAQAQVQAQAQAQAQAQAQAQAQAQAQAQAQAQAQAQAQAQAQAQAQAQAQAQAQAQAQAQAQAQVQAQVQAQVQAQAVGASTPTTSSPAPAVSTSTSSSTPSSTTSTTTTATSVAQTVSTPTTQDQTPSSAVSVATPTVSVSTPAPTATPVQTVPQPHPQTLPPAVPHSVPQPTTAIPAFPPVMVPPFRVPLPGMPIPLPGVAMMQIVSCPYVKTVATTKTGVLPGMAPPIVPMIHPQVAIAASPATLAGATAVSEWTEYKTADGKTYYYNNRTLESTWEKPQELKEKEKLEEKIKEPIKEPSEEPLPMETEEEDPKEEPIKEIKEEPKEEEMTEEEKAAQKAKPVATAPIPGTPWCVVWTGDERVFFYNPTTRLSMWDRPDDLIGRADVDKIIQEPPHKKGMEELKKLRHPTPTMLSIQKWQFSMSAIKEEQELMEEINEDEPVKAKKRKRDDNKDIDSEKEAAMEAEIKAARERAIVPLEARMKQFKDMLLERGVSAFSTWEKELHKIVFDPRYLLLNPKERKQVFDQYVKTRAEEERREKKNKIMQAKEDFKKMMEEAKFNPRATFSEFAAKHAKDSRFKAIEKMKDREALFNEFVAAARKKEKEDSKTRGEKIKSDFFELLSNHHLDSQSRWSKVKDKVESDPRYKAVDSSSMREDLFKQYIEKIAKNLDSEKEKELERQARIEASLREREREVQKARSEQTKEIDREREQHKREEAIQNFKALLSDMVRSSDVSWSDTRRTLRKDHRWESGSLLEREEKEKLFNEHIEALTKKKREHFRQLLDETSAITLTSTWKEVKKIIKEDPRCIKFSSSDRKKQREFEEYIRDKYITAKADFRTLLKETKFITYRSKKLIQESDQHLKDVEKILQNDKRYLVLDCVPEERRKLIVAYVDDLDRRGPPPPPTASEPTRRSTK
# UniProt O15054, whole entry: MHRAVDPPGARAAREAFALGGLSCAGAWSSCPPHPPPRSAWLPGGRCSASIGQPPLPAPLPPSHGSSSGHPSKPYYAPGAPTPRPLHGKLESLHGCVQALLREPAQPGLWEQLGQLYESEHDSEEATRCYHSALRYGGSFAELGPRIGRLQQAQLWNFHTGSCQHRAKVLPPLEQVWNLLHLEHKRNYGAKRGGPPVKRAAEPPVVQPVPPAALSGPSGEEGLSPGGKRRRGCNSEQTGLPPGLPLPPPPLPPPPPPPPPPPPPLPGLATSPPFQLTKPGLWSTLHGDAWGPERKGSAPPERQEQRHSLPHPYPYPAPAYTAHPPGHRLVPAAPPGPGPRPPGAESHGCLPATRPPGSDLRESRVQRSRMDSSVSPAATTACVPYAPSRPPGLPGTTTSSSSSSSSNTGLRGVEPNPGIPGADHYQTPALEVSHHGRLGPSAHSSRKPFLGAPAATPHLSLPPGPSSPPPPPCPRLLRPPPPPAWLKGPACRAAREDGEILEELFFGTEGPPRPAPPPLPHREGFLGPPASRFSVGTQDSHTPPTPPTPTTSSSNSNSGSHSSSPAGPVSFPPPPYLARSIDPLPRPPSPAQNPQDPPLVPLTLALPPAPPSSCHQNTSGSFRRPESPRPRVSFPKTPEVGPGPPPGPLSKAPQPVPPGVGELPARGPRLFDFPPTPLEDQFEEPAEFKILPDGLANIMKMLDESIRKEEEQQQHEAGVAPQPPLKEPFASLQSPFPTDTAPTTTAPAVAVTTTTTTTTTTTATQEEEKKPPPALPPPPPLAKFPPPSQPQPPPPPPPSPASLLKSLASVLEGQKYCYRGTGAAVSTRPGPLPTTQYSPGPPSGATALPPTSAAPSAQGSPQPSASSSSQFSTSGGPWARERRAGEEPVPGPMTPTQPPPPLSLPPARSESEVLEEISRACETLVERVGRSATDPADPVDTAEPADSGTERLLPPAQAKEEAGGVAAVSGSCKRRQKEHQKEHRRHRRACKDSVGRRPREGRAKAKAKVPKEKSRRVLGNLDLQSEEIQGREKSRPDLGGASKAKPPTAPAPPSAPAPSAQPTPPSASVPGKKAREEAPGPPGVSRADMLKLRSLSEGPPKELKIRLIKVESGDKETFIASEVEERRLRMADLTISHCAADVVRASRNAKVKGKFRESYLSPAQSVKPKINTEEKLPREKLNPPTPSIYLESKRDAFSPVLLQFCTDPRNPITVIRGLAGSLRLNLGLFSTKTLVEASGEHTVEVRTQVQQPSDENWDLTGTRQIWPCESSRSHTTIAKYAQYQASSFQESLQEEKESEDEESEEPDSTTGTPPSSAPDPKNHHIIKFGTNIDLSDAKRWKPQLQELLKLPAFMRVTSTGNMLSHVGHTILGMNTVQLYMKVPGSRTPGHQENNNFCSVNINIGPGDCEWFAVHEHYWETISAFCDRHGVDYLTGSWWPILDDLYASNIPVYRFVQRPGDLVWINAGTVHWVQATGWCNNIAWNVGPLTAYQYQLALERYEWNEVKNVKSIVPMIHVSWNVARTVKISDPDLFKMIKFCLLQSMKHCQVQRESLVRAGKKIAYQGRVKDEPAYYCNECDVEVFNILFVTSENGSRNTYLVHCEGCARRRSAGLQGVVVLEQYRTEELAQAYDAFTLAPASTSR
# Some of the results follow. Small differences around the control level are noise.
# Compound: CN[C@@H]1C[C@H]2O[C@@](C)([C@@H]1OC)n1c3ccccc3c3c4c(c5c6ccccc6n2c5c31)C(=O)NC4 [staurosporine]
# Test: log2 fold change of tryptic peptide abundance, ligand vs vehicle (limited proteolysis) (log2 ratio); higher = more trypsin-susceptible (destabilized)
# Conditions: ligand concentration: 20 uM; sample: K562 cleared lysate; digestion: 4 min, 22 C (HT-PELSA RT4min, Orbitrap Astral)
row,Target,log2 fold change
1,"TNPO2 (peptide sequence: NIRDNEEKDSAFR, peptide start residue: 811) (UniProt O14787)",0.323
2,"GIPC1 (peptide sequence: LVFHTQLAHGSPTGR, peptide start residue: 58) (UniProt O14908)",-0.506
3,"UBFD1 (peptide sequence: IMVVGSTINDVLAVNTPK, peptide start residue: 150) (UniProt O14562)",-0.127
4,"SCAMP3 (peptide sequence: AQQEFAAGVFSNPAVR, peptide start residue: 314) (UniProt O14828)",0.15
5,"WASL (peptide sequence: KAVTDLLGR, peptide start residue: 132) (UniProt O00401)",0.759
6,"EIF3D (peptide sequence: DMPYQPFSKGDRLGK, peptide start residue: 27) (UniProt O15371)",-0.23
7,"TUBAL3 (peptide sequence: GRYSVGSEVIDLVLER, peptide start residue: 113) (UniProt A6NHL2)",0.473
8,"UniProt B3KNS4 (peptide sequence: RDPWYSTVGLLPPVR, peptide start residue: 20)",-0.0781
9,"TCERG1 (peptide sequence: AVDSSSMR, peptide start residue: 829) (UniProt O14776)",-0.316
10,"UniProt O15054 (peptide sequence: SESEVLEEISR, peptide start residue: 909)",-0.268

# A second format for part of the listing above.
row	Target	log2 fold change
1	TNPO2 (peptide sequence: NIRDNEEKDSAFR, peptide start residue: 811) (UniProt O14787)	0.323
2	GIPC1 (peptide sequence: LVFHTQLAHGSPTGR, peptide start residue: 58) (UniProt O14908)	-0.506
